We go through one compound from patent publication US20250304549A1, “HYDROXYAMIDE DERIVATIVE AND USE THEREOF” (SICHUAN HUIYU PHARMACEUTICAL CO., LTD., priority 2022, published 2025).

Holding throughout (format): cell-based
For assay [1], the system named is NCI-H1417 cells. Description: In vitro cell inhibition assay - H1417 cell proliferation (CellTiter-Glo). As to conditions: Homo sapiens, H1417 small cell lung cancer cell proliferation. As to the method: 3. In Vitro Cell Inhibition Assay—H1417 Cell Proliferation
The inhibitory effect of the compounds on cell proliferation was assessed by detecting the number of viable cells using the CellTiter-Glo® reagent. NCI-H1417 cells in the logarithmic growth phase were collected and inoculated into transparent-bottom 96-well plates at a density of 7×10^3 cells/well with 100 μL of medium, and incubated at 37° C., 5% CO2 overnight. The compounds were sequentially diluted in a 5-fold concentration gradient with DMSO to obtain 8 different concentrations o. These were diluted with BEGM (containing 10% FBS) cell culture medium to obtain the compound working solution (2×), which was added to the cell supernatant at 100 μL per well. The incubation continued for 7 days at 37° C., 5% CO2. The plate was then removed and equilibrated to room temperature (25° C.) along with the CellTiter-Glo® mixing reagent for 10-30 minutes. After centrifugation, 100 μL of the culture medium was carefully aspirated from each well, and 85 μL of CellTiter-Glo® reagent was added. […] The 96-well plate was subsequently placed on a multifunctional microplate reader to record the Luminescence values (RLU). • The inhibition rate was calculated using the following formula: […]
(§1) The IC50 value was determined by fitting the inhibition rate by GraphPad Prism software.

Assay [2] deals with NCI-H69 cells. Description: In vitro cell inhibition assay - NCI-H69 cell proliferation (CellTiter-Glo). As to conditions: Homo sapiens, H69 small cell lung cancer cell proliferation. As to the method: 4. In Vitro Cell Inhibition Assay—NCI-H69 Cell Proliferation
The inhibitory effect of the compounds on cell proliferation was assessed by detecting the number of viable cells using the CellTiter-Glo® reagent. NCI-H69 cells in the logarithmic growth phase were collected and inoculated into transparent bottom 96-well plates at a density 1×10^3 cells per well with 100 μL medium, and incubated at 37° C., 5% CO2 overnight. The compounds were sequentially diluted in a 5-fold concentration gradient with DMSO to obtain 8 different concentrations These were then diluted with RPMI-640 (containing 20% FBS) cell culture medium to obtain the compounds working solution (2×), which was added to the cell supernatant at 100 μL per well. The incubation continued for 7 days at 37° C., 5% CO2. The plate was then removed and equilibrated to room temperature (25° C.) along with the CellTiter-Glo® mixing reagent for 10-30 minutes. After centrifugation at 1200 rpm for 5 minutes, 120 μL of the culture medium was carefully aspirated from each well, and 60 μL of CellTiter-Glo® reagent was added. […] The 96-well plate was subsequently placed on a multifunctional microplate reader to record the Luminescence values (RLU).
(§2) The inhibition rate was calculated using the following formula: […]
as §1
(Cellular ATP, detected with luciferase, serves as a proxy for viable cell number.)

The subject of assay [3] is DU145 cells. The assay is described as follows: In vitro cell inhibition assay - DU145 cell proliferation (CellTiter-Glo). Conditions: Homo sapiens, DU-145, Du145 prostate cancer cell proliferation. As to the method: 5. In Vitro Cell Inhibition Assay—DU145 Cell Proliferation
The inhibitory effect of the compounds on cell proliferation was assessed by detecting the number of viable cells using the CellTiter-Glo® reagent. DU145 cells in the logarithmic growth phase were collected and inoculated into transparent bottom 96-well plates at a density 1×10^3 cells per well with 100 μL medium, and incubated at 37° C., 5% CO2 overnight. The compounds were sequentially diluted in a 5-fold concentration gradient with DMSO to obtain 8 different concentrations. These were then diluted with RPMI-640 (containing 10% FBS) cell culture medium to obtain the compound working solution (2×), which was added to the cell supernatant at 100 μL per well. The incubation continued for 6 days at 37° C., 5% CO2. The plate was then removed and equilibrated at room temperature (25° C.) along with the CellTiter-Glo® mixing reagent for 10-30 minutes. After centrifugation, 120 μL of the culture medium was carefully aspirated from each well, and 60 μL of CellTiter-Glo® reagent was added. […] The 96-well plate was subsequently placed on a multifunctional microplate reader to record the Luminescence values (RLU).
as §2, §1

The IC50 is the concentration that gives 50% inhibition. High values mean a need for much substance, low ones inhibition by little substance. Turning to `O=C(CCCCCCC(=O)Nc1ccccc1)NO` [SAHA, Vorinostat, reference compound], the IC50 turned out to be 710 nM in assay [1], 473 nM in assay [2] and 1350 nM in assay [3].
